Laboratory results published in the supplement of paper PMC12067093, “Discovery and optimisation of a covalent ligand for TRIM25 and its application to targeted protein ubiquitination” (Chemical Science, 2025).
This is one part of the list.

Each target was assayed with Cc1cc(ccc1-c1ccccc1)C(=O)N1CCCN(CC1)C(=O)CCl [compound 10] (assay: probe-labelled cysteine peptide fold change vs DMSO (competition) (log2 fold change); higher = less target engagement (more negative = stronger competition)). Settings: 10 µM; THP-1; incubation time: 4 h.
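Note: competitive profiling in live THP-1 cells: cysteine peptides tagged with an iodoacetamide desthiobiotin (IA-DTB) probe, intensity after compound treatment relative to DMSO-treated cells.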

Point of comparison: “CUL4A_Q13619_289_VITYLDHSTQKPLIACVEK (UniProt Q13619)”, “probe-labelled cysteine peptide fold change” value -0.0974. Against it:
- DDAH2_O95865_220_AMAVLTDHPYASLTLPDDAAADCLFLRPGLPGVPPFLLHR (UniProt O95865) — higher, 0.061
- DARS_P14868_203_LQSGICHLFR (UniProt P14868) — higher, 0.0878
- DCTN4_Q9UJW0_114_AYYLACGFCR (UniProt Q9UJW0) — higher, 0.0164
- DCAF7_P61962_109_LECLLNNNK (UniProt P61962) — higher, 0.161
- DAZAP1_Q96EP5_63_DPNCVGTVLASR (UniProt Q96EP5) — higher, 0.251
- CTR9_Q6PD62_309_VQHLALHAFHNTEVEAMQAESCYQLAR (UniProt Q6PD62) — higher, 0.213
- CUL3_Q13618_298_TEDLGCMYK (UniProt Q13618) — lower, -0.203
- CUL5_Q93034_281_ETILAECQGMIK (UniProt Q93034) — higher, 0.0437
- CYB5R3_P00387_274+284_DHLPPPEEEPLVLMCGPPPMIQYACLPNLDHVGHPTER (UniProt P00387) — higher, 0.133
- CUL9_Q8IWT3_76_AEHILMWLSAPEVYANCPGLLGER (UniProt Q8IWT3) — higher, 0.0237
- CUL4A_Q13619_633_TLQSLACGK (UniProt Q13619) — lower, -0.232
- CUL4A_Q13619_289_LEEEGDRVITYLDHSTQKPLIACVEK (UniProt Q13619) — lower, -0.202
- CYTH1_Q15438_323_KPNCFELYIPDNK (UniProt Q15438) — higher, -0.0201
- DARS2_Q6PI48_590_LICLVTGSPSIRDVIAFPK (UniProt Q6PI48) — lower, -0.247
- DCAF4_Q8WV16_88_LLPGHNNCNPLTK (UniProt Q8WV16) — lower, -0.132
- DCTD_P32321_60_IVGIGYNGMPNGCSDDVLPWR (UniProt P32321) — higher, 0.155
- CTSZ_Q9UBR2_179_ECHAIR (UniProt Q9UBR2) — higher, 0.892
- DCAF10_Q5QP82_369_VSGSPCHHSDSNSSEK (UniProt Q5QP82) — higher, 0.042
- CTR9_Q6PD62_231_CVGALVGLAVLELNNK (UniProt Q6PD62) — higher, -0.0314
- CWF19L1_Q69YN2_288_QILAPVEESACQFFFDLNEK (UniProt Q69YN2) — higher, 0.257
- DCTN4_Q9UJW0_70_CANCFDCPGCMHTLSTR (UniProt Q9UJW0) — higher, 0.128
- DCAF8_Q5TAQ9_256_FLPNSGDSTLAMCAR (UniProt Q5TAQ9) — higher, -0.0556
- CTSV_O60911_323_NNHCGIATAASYPNV (UniProt O60911) — lower, -0.122
- DARS2_Q6PI48_202_EYLCNLHGFVDIETPTLFK (UniProt Q6PI48) — higher, 0.153
- DCTN3_O75935_140_LAQIHIQQQDQCVEITEESK (UniProt O75935) — lower, -0.291
- DAXX_Q9UER7_106_AHSLFLASAEFCNILSR (UniProt Q9UER7) — higher, 0.131
- CXXC1_Q9P0U4_181+184+187_TEDCGHCDFCR (UniProt Q9P0U4) — higher, -0.0641
- CUL4B_Q13620_533_DKVDHIIDICFLK (UniProt Q13620) — higher, 0.0105
- DCTN1_Q14203_742_YYQHLYSIHLAEQPEDCTMQLADHIK (UniProt Q14203) — higher, -0.00829
- DCP2_Q8IU60_391_KLQDNFETDAVYDLPSSSEDQLLEHAEGQPVACNGHCK (UniProt Q8IU60) — lower, -0.353
- CTSG_P08311_207_AAFKGDSGGPLLCNNVAHGIVSYGK (UniProt P08311) — lower, -0.329
- CTSB_P07858_179_GLVSGGLYESHVGCR (UniProt P07858) — higher, 0.0761
- CXXC1_Q9P0U4_181_TEDCGHCDFCR (UniProt Q9P0U4) — higher, 0.297
- DCAF13_Q9NV06_190_TNPICSMTWGFDSISSVK (UniProt Q9NV06) — higher, 0.00434
- DBNL_Q9UJU6_97_KGACASHVSTMASFLK (UniProt Q9UJU6) — higher, 0.0516

Same assay, conditions: 50 µM; THP-1; incubation time: 4 h

Point of comparison: “DBNL_Q9UJU6_97_KGACASHVSTMASFLK (UniProt Q9UJU6)”, “probe-labelled cysteine peptide fold change” value -0.486. Against it:
- DDAH2_O95865_220_AMAVLTDHPYASLTLPDDAAADCLFLRPGLPGVPPFLLHR (UniProt O95865) — higher, 0.0115
- DARS_P14868_203_LQSGICHLFR (UniProt P14868) — higher, 0.138
- DCTN4_Q9UJW0_114_AYYLACGFCR (UniProt Q9UJW0) — higher, 0.0885
- DCAF7_P61962_109_LECLLNNNK (UniProt P61962) — higher, -0.0314
- DAZAP1_Q96EP5_63_DPNCVGTVLASR (UniProt Q96EP5) — higher, 0.642
- CTR9_Q6PD62_309_VQHLALHAFHNTEVEAMQAESCYQLAR (UniProt Q6PD62) — higher, 0.0318
- CUL3_Q13618_298_TEDLGCMYK (UniProt Q13618) — higher, -0.102
- CUL5_Q93034_281_ETILAECQGMIK (UniProt Q93034) — higher, -0.0471
- CYB5R3_P00387_274+284_DHLPPPEEEPLVLMCGPPPMIQYACLPNLDHVGHPTER (UniProt P00387) — higher, 0.373
- CUL9_Q8IWT3_76_AEHILMWLSAPEVYANCPGLLGER (UniProt Q8IWT3) — higher, -0.0123
- CUL4A_Q13619_633_TLQSLACGK (UniProt Q13619) — higher, -0.0564
- CUL4A_Q13619_289_LEEEGDRVITYLDHSTQKPLIACVEK (UniProt Q13619) — lower, -0.571
- CYTH1_Q15438_323_KPNCFELYIPDNK (UniProt Q15438) — higher, 0.17
- CUL4A_Q13619_289_VITYLDHSTQKPLIACVEK (UniProt Q13619) — higher, -0.471
- DARS2_Q6PI48_590_LICLVTGSPSIRDVIAFPK (UniProt Q6PI48) — higher, 0.252
- DCAF4_Q8WV16_88_LLPGHNNCNPLTK (UniProt Q8WV16) — higher, -0.353
- DCTD_P32321_60_IVGIGYNGMPNGCSDDVLPWR (UniProt P32321) — higher, -0.179
- CTSZ_Q9UBR2_179_ECHAIR (UniProt Q9UBR2) — higher, 2.23
- DCAF10_Q5QP82_369_VSGSPCHHSDSNSSEK (UniProt Q5QP82) — lower, -0.58
- CTR9_Q6PD62_231_CVGALVGLAVLELNNK (UniProt Q6PD62) — higher, 0.0276
- CWF19L1_Q69YN2_288_QILAPVEESACQFFFDLNEK (UniProt Q69YN2) — higher, 0.122
- DCTN4_Q9UJW0_70_CANCFDCPGCMHTLSTR (UniProt Q9UJW0) — higher, 0.00716
- DCAF8_Q5TAQ9_256_FLPNSGDSTLAMCAR (UniProt Q5TAQ9) — higher, -0.22
- CTSV_O60911_323_NNHCGIATAASYPNV (UniProt O60911) — higher, 0.2
- DARS2_Q6PI48_202_EYLCNLHGFVDIETPTLFK (UniProt Q6PI48) — higher, 0.438
- DCTN3_O75935_140_LAQIHIQQQDQCVEITEESK (UniProt O75935) — higher, -0.146
- DAXX_Q9UER7_106_AHSLFLASAEFCNILSR (UniProt Q9UER7) — higher, 0.167
- CXXC1_Q9P0U4_181+184+187_TEDCGHCDFCR (UniProt Q9P0U4) — lower, -0.57
- CUL4B_Q13620_533_DKVDHIIDICFLK (UniProt Q13620) — higher, 0.479
- DCTN1_Q14203_742_YYQHLYSIHLAEQPEDCTMQLADHIK (UniProt Q14203) — higher, -0.241
- DCP2_Q8IU60_391_KLQDNFETDAVYDLPSSSEDQLLEHAEGQPVACNGHCK (UniProt Q8IU60) — lower, -1.7
- CTSG_P08311_207_AAFKGDSGGPLLCNNVAHGIVSYGK (UniProt P08311) — lower, -0.817
- CTSB_P07858_179_GLVSGGLYESHVGCR (UniProt P07858) — higher, -0.0534
- CXXC1_Q9P0U4_181_TEDCGHCDFCR (UniProt Q9P0U4) — higher, 0.538
- DCAF13_Q9NV06_190_TNPICSMTWGFDSISSVK (UniProt Q9NV06) — higher, -0.0491
